Out of some 580,000 compounds screened, about 6,100 (1.1%) were called active. Inconclusive results, whose numbers are uncertain, are shown with a selection of clear calls. The call rests on the fitted dose curve; in most records, active means well fitted inhibition curve with a large enough effect; inconclusive means small, poorly fitted or top-dose-only effect, or another doubt; inactive means no such curve, though single readings can be large or run the other way. Where the call is inconclusive, the potency comes from a doubtful curve fit.
biological target: Polyunsaturated fatty acid lipoxygenase ALOX12 (Homo sapiens) (UniProt P18054); test: Primary qHTS assay for inhibitors of human arachidonate 12S-lipoxygenase (ALOX12): Round 2; conditions: purified 12hLO, xylenol orange hydroperoxide absorbance; series mostly up to 108 µM
How it was run: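 Purified human 12hLO (150 nM final) in 25 mM Hepes, 0.01% Triton X-100, pH 7.0 was preincubated 15 min at room temperature with compound. Then 40 uM arachidonic acid was added, 30 min. Hydroperoxide was read by Fe-XO absorbance ratio 573/405 nm.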
Potency means the concentration at half of the fitted maximal effect.

Amino acid sequences for entries named in this document (tags omitted). A change or cut given only in a name is not applied to a line headed by its entry.
UniProt P18054: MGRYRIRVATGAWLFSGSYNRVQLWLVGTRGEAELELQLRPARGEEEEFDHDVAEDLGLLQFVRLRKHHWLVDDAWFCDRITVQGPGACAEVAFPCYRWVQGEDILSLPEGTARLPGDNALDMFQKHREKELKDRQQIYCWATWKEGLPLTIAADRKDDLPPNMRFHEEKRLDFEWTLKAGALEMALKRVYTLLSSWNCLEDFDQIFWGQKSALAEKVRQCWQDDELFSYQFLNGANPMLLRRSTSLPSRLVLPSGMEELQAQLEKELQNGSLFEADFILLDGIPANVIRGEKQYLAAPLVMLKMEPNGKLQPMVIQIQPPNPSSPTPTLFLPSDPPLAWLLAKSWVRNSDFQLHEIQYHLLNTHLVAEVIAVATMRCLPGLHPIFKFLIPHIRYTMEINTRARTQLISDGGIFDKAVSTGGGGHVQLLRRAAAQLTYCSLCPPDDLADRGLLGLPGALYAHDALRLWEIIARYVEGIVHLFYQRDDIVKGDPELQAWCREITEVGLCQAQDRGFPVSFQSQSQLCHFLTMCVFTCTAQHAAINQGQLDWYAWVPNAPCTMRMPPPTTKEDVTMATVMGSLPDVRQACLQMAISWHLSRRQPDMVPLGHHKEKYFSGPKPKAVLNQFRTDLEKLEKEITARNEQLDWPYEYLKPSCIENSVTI

| Structure (SMILES) | Potency |
| --- | --- |
| CCN(CC)CCOC(=O)C1(c2ccccc2)CCCC1 | inconclusive: 11.2 µM [inhibitor, full curve, poor fit] |
| CCN(C(=O)C1CCCCC1)c1nnc(-c2cccnc2)s1 | inconclusive: 39.8 µM [inhibitor, single point] |
| Cc1cccc(N(Cc2cc3ccc(C)cc3[nH]c2=O)C(=O)c2ccco2)c1 | inconclusive: 70.8 µM [inhibitor, partial curve, poor fit] |
| Cc1sc2nc(CSC(C)C(=O)Nc3ccccn3)[nH]c(=O)c2c1C (stereo not drawn) | inconclusive: 89.1 µM [inhibitor, single point] |
| CN(CC(=O)NC(=O)NC1CCCCC1)Cc1ccc(C(F)(F)F)cc1 | inconclusive: 112 µM [inhibitor, single point] |
| Cc1ccc(CN2CCc3nc(N4CCOCC4)[nH]c(=O)c3CC2)s1 | inconclusive: 15.8 µM [inhibitor, full curve, poor fit] |
| CCn1c(=NC(=O)CS(=O)(=O)c2ccc(F)cc2)sc2cccc(OC)c21 | inactive |
| CC(C)(C)c1ccc(C#C[C@@H]2C=C[C@@H](O)[C@@H](COC(=O)NCc3ccccc3)O2)cc1 | inconclusive: 50.1 µM [inhibitor, partial curve, poor fit] |
| O=C1CCC[C@H]2[C@@H](Cc3ccccc3)[C@@H](NS(=O)(=O)c3ccc(Cl)cc3)CC[C@]23CCCN13 | inconclusive: 44.7 µM [inhibitor, partial curve, poor fit] |
| COc1ccc(CCNCC(O)c2ccccc2)cc1 (stereo not drawn) | inconclusive: 1 µM [inhibitor, full curve, poor fit] |
| CCOC(=O)Cn1c(=O)oc2cc(S(=O)(=O)N3CCN(c4ccccc4F)CC3)ccc21 | inactive |
| COC(=O)c1ccc(NC(=S)NC2c3ccccc3CC2O)cc1 (stereo not drawn) | inconclusive: 44.7 µM [inhibitor, partial curve] |
| Nc1cc(C(=O)N2CCc3onc(-c4ccc(-c5ccccc5)cc4)c3C2)[nH]n1 | inactive |
| COc1ccc(NC(=O)c2cc(-c3cc(F)ccc3OCC3CCCO3)n[nH]2)cc1OC (stereo not drawn) | inactive |
| Cc1cccc(C(=O)N(Cc2cccs2)C2CC2)c1 | inactive |
| CC1=C(C(=O)N(C)C)CC(CC(=O)NCc2cccc3ccccc23)C(=O)N1Cc1ccc(C(C)(C)C)cc1 (stereo not drawn) | inconclusive: 126 µM [inhibitor, single point] |
| COc1ccc(-c2noc(-c3ncn4c3COC(c3ccc(F)cc3)C4)n2)cc1OC (stereo not drawn) | inconclusive: 89.1 µM [inhibitor, single point] |
| O=C(CCN1C(=O)/C(=C/c2ccccc2F)SC1=S)Nc1cccnc1 | inactive |
| O=C(c1ccncc1)N1CCCC1c1nnc2n1CCNC2 (stereo not drawn) | inconclusive: 3.16 µM [inhibitor, partial curve] |
| CSc1ccc(NC(N)=S)cc1 | inactive |
| O=C(C1CCC1)N1CCCC(Cc2nc(C3CCOCC3)no2)C1 (stereo not drawn) | inactive |
| COc1ccc(-c2nn(-c3ccccc3)cc2C2=NN(S(C)(=O)=O)C(c3ccco3)C2)cc1 (stereo not drawn) | inconclusive: 22.4 µM [inhibitor, partial curve, poor fit] |
| COc1ccc(CC(=O)NCC2CCCN(Cc3ccc(OC(F)(F)F)cc3)C2)cc1 (stereo not drawn) | inactive |

Rewritten with each value named: part of the list above
CC1=C(C(=O)N(C)C)CC(CC(=O)NCc2cccc3ccccc23)C(=O)N1Cc1ccc(C(C)(C)C)cc1 (stereo not drawn)
  Potency: inconclusive: 126 µM [inhibitor, single point]
COc1ccc(-c2noc(-c3ncn4c3COC(c3ccc(F)cc3)C4)n2)cc1OC (stereo not drawn)
  Potency: inconclusive: 89.1 µM [inhibitor, single point]
O=C(CCN1C(=O)/C(=C/c2ccccc2F)SC1=S)Nc1cccnc1
  Potency: inactive
O=C(c1ccncc1)N1CCCC1c1nnc2n1CCNC2 (stereo not drawn)
  Potency: inconclusive: 3.16 µM [inhibitor, partial curve]

(continued)

| Structure (SMILES) | Potency |
| --- | --- |
| C#CCSc1nc(-c2ccccc2)cc(-c2ccccc2)c1C#N | inactive |
| C=CCn1c(SCC(=O)c2ccc(O)c(O)c2)nnc1-c1cccc(Cl)c1 | inconclusive: 11.2 µM [inhibitor, full curve, poor fit] |
| CSS(=O)(=O)c1cccc2cccnc12 | inconclusive: 8.91 µM [inhibitor, full curve, poor fit] |
| CN(C)CCC=C1c2ccccc2CCc2ccccc21 | inactive |
| COCCn1c(=O)[nH]c(=O)c2c3c(cnc21)C(=O)CC(c1cccs1)C3 (stereo not drawn) | inconclusive: 3.16 µM [inhibitor, full curve, poor fit] |
| CCc1ccc(S(=O)(=O)N2CCN(C(=O)c3cc(C)on3)CC2)cc1 | inactive |
| COc1cc(C(c2nnnn2C2CCCC2)N2CCN(C(=O)c3ccco3)CC2)cc(OC)c1OC (stereo not drawn) | inconclusive: 31.6 µM [inhibitor, partial curve, poor fit] |
| COc1ccc(-c2nc3ccc(Cl)cn3c2Cc2ccccc2C(F)(F)F)cc1OC | inconclusive: 44.7 µM [inhibitor, partial curve, poor fit] |
| COc1cc(NS(=O)(=O)c2cc3c(cc2C)N(C)CCO3)cc(OC)c1OC | inactive |
| COC(=O)c1ccc(CSc2nc(C)nc3sc(C)c(C)c23)o1 | inactive |
| C/C=C/C1=CC(=O)C[C@H](c2ccc(F)cc2)C1 | inconclusive: 50.1 µM [inhibitor, partial curve, poor fit] |
| COc1cccc(-c2cc3onc(-c4ccccc4)c3c(=O)n2C)c1 | inactive |
| COc1cccc(/C=N/NC(=O)C(C)n2nc(C)c([N+](=O)[O-])c2C)c1O (stereo not drawn) | inactive |
| CCOc1ccc(NC(=O)CC2CCCN(c3cnn(CCOC)c(=O)c3)C2)cc1 (stereo not drawn) | inconclusive: 6.31 µM [inhibitor, full curve, poor fit] |
| FC(F)(F)c1ccc(Cl)c(Nc2nnc(-c3ccncc3)s2)c1 | inconclusive: 79.4 µM [inhibitor, single point] |
| OC(c1ccc(F)c(F)c1)c1nc(-c2ccc3c(c2)OCO3)cs1 (stereo not drawn) | inconclusive: 70.8 µM [inhibitor, partial curve, poor fit] |
| CCc1ccccc1OCCOc1ccc(C)cc1OC | inactive |
| CCCn1cc(SCC(=O)NCc2ccco2)c2ccccc21 | inconclusive: 50.1 µM [inhibitor, partial curve, poor fit] |
| COc1ccc(Cn2cc(CN3CC(N4CCCC4)CS3(=O)=O)nn2)cc1 (stereo not drawn) | inconclusive: 39.8 µM [inhibitor, partial curve, poor fit] |
| COc1cc(NC(=O)COC(=O)c2ccc(C)c(S(=O)(=O)N3CCCCC3)c2)c(C)cc1[N+](=O)[O-] | inactive |
| Cc1ccc(CN2CCc3nc(Nc4ccc5c(c4)OCCO5)ncc3C2)cc1 | inconclusive: 56.2 µM [inhibitor, partial curve, poor fit] |
| O=C(Cc1ccc2c(c1)OCCCO2)NC1CCCc2c1[nH]c1ccccc21 (stereo not drawn) | active: 50.1 µM |
| COc1ccc(CNC(=O)c2cccc(OC)c2)cc1 | inconclusive: 31.6 µM [inhibitor, single point] |

| Structure (SMILES) | Potency |
| --- | --- |
| CC(C)=CCC/C(C)=C/C=N/NC(=S)Nc1ccccc1 | inconclusive: 50.1 µM [inhibitor, partial curve, poor fit] |
| CC1=C(c2ccc(C(C)C)cc2)S(=O)(=O)NC1=NCCCN1CCN(c2ccccc2F)CC1 | inconclusive: 56.2 µM [inhibitor, partial curve, poor fit] |
| OCCNCCCCSc1ccc(Cl)cc1 | inconclusive: 7.94 µM [inhibitor, full curve] |
| COc1ccc(CN2CCN(S(=O)(=O)c3ccc(C)cc3)CC2)cc1OC | inconclusive: 0.501 µM [inhibitor, full curve, poor fit] |
| CC(C)N1CCN(C2CCN(c3ccc4c(c3)OCO4)CC2)CC1CCO (stereo not drawn) | inconclusive: 79.4 µM [inhibitor, single point] |
| COc1ccc(-c2nc(CSCC(=O)N3CCc4ccccc43)co2)cc1 | inactive |
| CCCCS(=O)(=O)CC(O)CSc1nc(-c2ccc(C)cc2)cc(-c2ccccc2)c1C#N (stereo not drawn) | inactive |
| Cc1cc(F)ccc1NC(=O)c1ncoc1-c1cccc(Cl)c1 | inconclusive: 39.8 µM [inhibitor, partial curve, poor fit] |
| Cc1ccc(S(=O)(=O)CC2CSc3nc(N)cc(=O)n32)cc1 (stereo not drawn) | inactive |
| Cc1nc2ccc(C(=O)N3CCOCC3)cc2nc1C | inconclusive: 3.98 µM [inhibitor, full curve, poor fit] |
| CC(OC(=O)c1ccccc1C(=O)N(C)c1ccccc1)C(=O)Nc1ccccc1[N+](=O)[O-] (stereo not drawn) | inconclusive: 112 µM [inhibitor, partial curve, poor fit] |
| CCCCNC(=O)c1nc2ccccc2nc1-c1cccc(Br)c1 | inconclusive: 89.1 µM [inhibitor, partial curve, poor fit] |
| CCc1cccc(NS(=O)(=O)c2ccc(-n3cccn3)cc2)c1 | inconclusive: 100 µM [inhibitor, single point] |
| COC(=O)Oc1nsnc1N1CCOCC1 | inconclusive: 56.2 µM [inhibitor, partial curve, poor fit] |
| CCCCn1nnnc1CSc1nnc(-c2cccnc2)n1-c1ccccc1C | inactive |
| Cc1ccc2c(c1)N=C(c1ccc(F)cc1)CO2 | inconclusive: 50.1 µM [inhibitor, single point] |
| CC(C)c1nc2c(c(-c3ccc(Cl)cc3)n1)CCN(C(=O)c1ccc3c(c1)OCO3)CC2 | inconclusive: 100 µM [inhibitor, partial curve, poor fit] |
| CCc1ccc(-c2nc3cc(NS(=O)(=O)c4ccccc4)ccc3o2)cc1 | inconclusive: 79.4 µM [inhibitor, partial curve, poor fit] |
| COC(=O)c1ccc2nc(-c3cccc(Br)c3)c(Cc3ccc(OC)cc3C)n2c1 | active: 7.94 µM |
| CCc1ccc(NC(=O)CSc2ccc(-c3ccccn3)nn2)cc1 | inactive |
| Cc1csc(NC(=O)CCc2c(C)nc3cc(-c4ccc(Cl)cc4)nn3c2C)n1 | inconclusive: 44.7 µM [inhibitor, partial curve] |
| CCOc1ccc(NC(=O)CN2CCN(CC(=O)c3ccc(OCC)cc3)CC2)cc1 | inconclusive: 39.8 µM [inhibitor, partial curve, poor fit] |

— PubChem BioAssay AID1671190 (National Center for Advancing Translational Sciences (NCATS), 2021)
